From the supplement of paper PMC4635364
Some of the results follow. Repeats in this data set agree poorly, so a single value says little.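 ReNCell VM, a human fetal ventral-midbrain neural progenitor line, was differentiated without mitogens. Blinded raters scored images stained for doublecortin (early neurons) or tyrosine hydroxylase (dopaminergic neurons) against untreated wells (0 = no change). Scores were averaged across repeats and both raters, and compounds averaging 2 or more were selected as hits for retesting.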

These compounds were tested on ReNCell VM (assay: neuronal differentiation score (DCX+ cell fraction vs untreated, manual image score) (score (-3 to 3)); higher = more neuronal differentiation). Settings: library: Spectrum; 2 uM; 2 weeks.
With `Cc1cc(O)cc(=O)o1` the neuronal differentiation score was inactive: 0. With `COC(=O)/C(=C1/OC(=O)C(c2ccccc2)=C1O)c1ccccc1` the neuronal differentiation score was inactive: 0. `OCC(O)C(O)C(O)CO` (configuration not stated) was tested, and the neuronal differentiation score was inactive: 0. In the case of `Nc1ccc(/N=N/c2ccccc2)c(N)n1`, the neuronal differentiation score is reported as inactive: 0. In the case of `CC1=C(/C=C/C(C)=C/C=C/C(C)=C/C(=O)O)C(C)(C)CCC1`, the neuronal differentiation score is reported as inactive: -1. For `CCN(CC)CCOC(=O)C1(C2CCCCC2)CCCCC1`, the neuronal differentiation score was inactive: 0. In the case of `COc1ccc2c(c1)OC[C@@H](Cc1ccc(OC)c(OC)c1)[C@H]2O`, the neuronal differentiation score is reported as inactive: 0. `NCCC[C@H](N)C(=O)O` was tested, and the neuronal differentiation score was inactive: 0. In the case of `O=C(O)Cc1ccccc1Nc1c(Cl)cccc1Cl`, the neuronal differentiation score is reported as inactive: 0. In the case of `NCCS(=O)(=O)O`, the neuronal differentiation score is reported as inactive: 0. `COc1ccc(Cc2cnc(N)nc2N)cc1OC` was tested, and the neuronal differentiation score was inactive: 1. `CC(=O)Oc1cc(-c2coc3cc(OC(C)=O)c(OC(C)=O)c(OC(C)=O)c3c2=O)cc(OC(C)=O)c1OC(C)=O` was tested, and the neuronal differentiation score was inactive: 0.
